PubChem BioAssay AID485314 (National Center for Advancing Translational Sciences (NCATS), 2010)
The campaign covered roughly 340,000 compounds. About 4,500 (1.3%) were called active. Inconclusive means that the source gave no clear call. Such entries were picked first, then a sample of the others. Calls come from the whole dose curve; as a rule, active = well fitted inhibition curve with a large enough effect; inconclusive = small, poorly fitted or top-dose-only effect, or another doubt; inactive = no such curve, though single readings can be large or run the other way. Where the call is inconclusive, the potency comes from a doubtful curve fit.
% is set by controls: 0 for no effect and ±100 for the full control effect; potency is the fitted concentration of half-maximal effect.

These molecules were tested against DNA polymerase beta (Homo sapiens) (UniProt P06746) (assay: qHTS Assay for Inhibitors of DNA Polymerase Beta). Settings: Pol beta primer extension/strand displacement, fluorescence kinetic; activity change, negative = inhibition: at 114 µM (top of the series).
Summary of the method: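 Human Pol beta at 10 nM; strand-displacement substrate 50 nM final. Compound exposure 15 min at room temperature before start, reaction 10 min at room temperature.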
COc1ccc(C2C(C(=O)O)CCC(=O)N2c2ccc(C)cc2)cc1OC (centres undefined) was tested, and the activity change, negative = inhibition was inconclusive: -71.9% [inhibitor].
With C[C@@H](NC(=O)c1nc[nH]c1C(=O)N[C@@H](CCCCNC(=O)OC(C)(C)C)C(=O)OC(C)(C)C)c1ccccc1 the Potency was inconclusive: 44.7 µM [inhibitor, partial curve].
In the case of NC(=O)C(CC(=O)O)NC(=O)[C@@H]1CCCCNc2c(I)cc([N+](=O)[O-])cc2C(=O)N[C@@H](CO)C(=O)NCC(=O)N1 (some centres undefined), the Potency is reported as active: 35.5 µM.
In the case of COc1ccc(CCn2c(C3CCCCC3)nc3c(c(=O)c4ccccc4n3C)c2=O)cc1, the activity change, negative = inhibition is reported as inconclusive: -42.3% [inhibitor].
In the case of COC(=O)c1cc2n3ccccc3c(C)c(-c3ccccc3)c-2c1C(=O)OC, the Potency is reported as “inactive”.
In the case of Cc1cccc(-c2nnn3c2nc(NCCC(C)C)c2ccccc23)c1, the Potency is reported as inconclusive: 89.1 µM [inhibitor, single point].
O=C(c1cnn(-c2ccccc2)c1)c1ccc2ccccc2c1O was tested, and the Potency was inconclusive: 15.8 µM [inhibitor, partial curve].
With CCCCNC(=O)N1CCN(c2ccnc3cc(Cl)ccc23)CC1 the Potency was “inactive”.
O=C(N/N=C/c1ccoc1)c1ccc(Cl)cc1 was tested, and the Potency was “inactive”.
With CN(C)Cc1cc(C(C)(C)C)cc(C(C)(C)C)c1O the Potency was “inactive”.
COc1ccc(/C=N/Nc2snc(SC)c2C#N)cc1OC was tested, and the Potency was inconclusive: 15.8 µM [inhibitor, full curve, poor fit].
In the case of Fc1ccc(NC(=S)NCc2cccnc2)cc1, the Potency is reported as inconclusive: 89.1 µM [inhibitor, single point].
In the case of CN(C)C(CNC(=O)CCOc1ccccc1)c1ccco1 (centres undefined), the Potency is reported as inconclusive: 89.1 µM [inhibitor, single point].
With Cc1cccc(NC(=O)CN2C(=O)COc3ccc(S(=O)(=O)Nc4ccccc4)cc32)c1C the Potency was inconclusive: 2.82 µM [inhibitor, single point].
O=C(Cn1c(=O)oc2cc(S(=O)(=O)N3CCCC3)ccc21)Nc1ccc(OC(F)(F)F)cc1 was tested, and the Potency was inconclusive: 89.1 µM [inhibitor, single point].
For CC(=O)CSc1nnc(NC(=O)CCc2ccccc2)s1, the Potency was inconclusive: 3.16 µM [inhibitor, partial curve, poor fit].
In the case of O=C(CCn1cnc2onc(-c3ccc(F)cc3)c2c1=O)N1CCN(c2ccccc2)CC1, the Potency is reported as “inactive”.
For COc1cccc(-c2nn(-c3ccccc3)cc2CN(C)C(C)c2ccon2)c1 (centres undefined), the Potency was inconclusive: 0.708 µM [inhibitor, full curve, poor fit].
For CCOC(=O)CN1NC2(CCCCCC2)NC1=S, the Potency was “inactive”.
